The record followed here is PubChem BioAssay AID212 (DTP/NCI, 2004).

The assay deals with BDF1 mice, colon carcinoma 38 sc, T/C %. Kind of assay: NCI In Vivo Anticancer Drug Screen. Data for tumor model Colon Carcinoma 38 (subcutaneous) in B6D2F1 (BDF1) mice. The procedure, abridged: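 Ratio of survival or tumor size, compound-treated animals relative to vehicle controls, in tumor-bearing mice.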
Setting [1] is: T/C endpoint: median tumor weight (est.), dose: 200.0 mg/kg/injection, schedule: Q07DX002 (ip), vehicle: saline with Tween-80, higher T/C = larger tumour.
Setting [2] is: T/C endpoint: median tumor weight (est.), dose: 400.0 mg/kg/injection, schedule: Q07DX002 (ip), vehicle: saline with Tween-80, higher T/C = larger tumour.
Where [3] appears, read: T/C endpoint: median tumor weight (est.), dose: 800.0 mg/kg/injection, schedule: Q07DX002 (ip), vehicle: saline with Tween-80, higher T/C = larger tumour.
[4] abbreviates: T/C endpoint: median tumor weight (est.), dose: 100.0 mg/kg/injection, schedule: Q07DX002 (ip), vehicle: saline, evaluated on day 20, higher T/C = larger tumour.
Where [5] appears, read: T/C endpoint: median tumor weight (est.), dose: 400.0 mg/kg/injection, schedule: Q07DX002 (ip), vehicle: Klucel (hydroxypropylcellulose) (HPC), higher T/C = larger tumour.

The list shows only some results of the screen, not a fair sample: it is rich in T/C values a quarter to a half above the control, in often repeated tests (any T/C) and in doses without a T/C. Further doses and runs are listed elsewhere. T/C: endpoint of the treated group in % of that of the vehicle group. Schedules are NCI's codes, taken here to give the interval after Q, in days (D) or hours (H), and the number of doses after X. Some T/C values are followed by the survivors on the day toxicity was checked, most often the fifth; where none is given, no animal had died by that day. Some entries were tested several times; the values are given in rising order. Some doses have a count of surviving animals in place of a T/C: the source files T/C as zero there, which appears to mark a toxic dose or a test without result, not a measured value. Counts of survivors are from the toxicity check (mostly the fifth day) where no day follows; animals may have died later. Where survival is the endpoint, the PubChem record calls one and a half times the control and up active, and a quarter to a half above the control has no call in these data; cut-offs in other NCI protocols can differ.

For the compound `NC(=O)/C=C/c1c[nH]c2nccnc12`, the T/C (T/C endpoint: median tumor weight (est.), dose: 50.0 mg/kg/injection, schedule: Q07DX002 (ip), vehicle: water, evaluated on day 20, higher T/C = larger tumour) is 141 % of control. The survivor count (T/C endpoint: median tumor weight (est.), dose: 200.0 mg/kg/injection, schedule: Q07DX002 (ip), vehicle: water, higher T/C = larger tumour) is 1 of 10 on day 20.
For `CC(=O)Nc1ccc(Nc2ccc(C(=C3C=CC(=[N+](C)CCC#N)C=C3)c3ccc(N(C)CCC#N)cc3)cc2)cc1`, the survivor count is 4 of 10 on day 20 (T/C endpoint: median tumor weight (est.), dose: 100.0 mg/kg/injection, schedule: Q07DX002 (ip), vehicle: saline with Tween-80, higher T/C = larger tumour); 0 of 10 on day 20 under setting [1]; 0 of 10 on day 20 under setting [2]; 0 of 10 on day 20 under setting [3].
On to `Cn1c2nc(=O)n(-c3ccccc3)c(=O)c-2nc2c1CCCC2`, for which the survivor count is 0 of 10 on day 20 under setting [1] and 0 of 10 on day 20 under setting [2].
As for `CC[C@@]1(O)C[C@H](OC2CC(N(C)C)C(OC3CC(O)C(OC4CCC(=O)C(C)O4)C(C)O3)C(C)O2)c2c(cc3c(c2O)C(=O)c2c(O)cccc2C3=O)[C@H]1C(=O)OC` (stereo not given in full), the T/C runs as follows: (T/C endpoint: median survival time, dose: 13.0 mg/kg/injection, schedule: Q07DX002 (iv), vehicle: water, higher T/C = longer survival) 132 % of control; (T/C endpoint: median tumor weight (est.), dose: 0.75 mg/kg/injection, schedule: Q07DX002 (ip), vehicle: water, evaluated on day 20, higher T/C = larger tumour) 128 % of control. Moreover, the survivor count reads like this: (T/C endpoint: median survival time, dose: 32.0 mg/kg/injection, schedule: Q07DX002 (iv), vehicle: water, higher T/C = longer survival) 1 of 10 on day 92; (T/C endpoint: median tumor weight (est.), dose: 12.0 mg/kg/injection, schedule: Q07DX002 (ip), vehicle: water, higher T/C = larger tumour) 6 of 10 on day 20; (T/C endpoint: median tumor weight (est.), dose: 24.0 mg/kg/injection, schedule: Q07DX002 (ip), vehicle: water, higher T/C = larger tumour) 0 of 10 on day 20; (T/C endpoint: median tumor weight (est.), dose: 24.0 mg/kg/injection, schedule: Q07DX003 (ip), vehicle: water, higher T/C = larger tumour) 1 of 10 on day 20.
Regarding `COC1C(/C=C/C(C)=O)OC2OC(C)(C)OC21` (stereo not given), for the setting “T/C endpoint: median tumor weight (est.), dose: 25.0 mg/kg/injection, schedule: Q07DX002 (ip), vehicle: saline, evaluated on day 20, higher T/C = larger tumour”, the T/C was 143 and 149 % of control. The survivor count (T/C endpoint: median tumor weight (est.), dose: 400.0 mg/kg/injection, schedule: Q07DX002 (ip), vehicle: saline, higher T/C = larger tumour) is 0 of 10 on day 20.
Consider `C1OC1C1CO1` (stereo not given), for which the survivor count was 0 of 10 on day 20 (T/C endpoint: median tumor weight (est.), dose: 40.0 mg/kg/injection, schedule: Q07DX002 (ip), vehicle: saline, higher T/C = larger tumour); 0 of 10 on day 20 and 3 of 10 on day 20 (T/C endpoint: median tumor weight (est.), dose: 80.0 mg/kg/injection, schedule: Q07DX002 (ip), vehicle: saline, higher T/C = larger tumour).
Consider `O=c1cnn(C2OC(CO)C(O)C2O)c(=O)[nH]1` (stereo not given), for which the T/C under setting [4] is 126 % of control.
In the case of `N=[N+]=CC(=O)OCC(N)C(=O)O` (stereo not given), the T/C (T/C endpoint: median tumor weight (est.), dose: 12.5 mg/kg/injection, schedule: Q07DX002 (ip), vehicle: water, evaluated on day 20, higher T/C = larger tumour) was 126 % of control. Moreover, the survivor count by setting is: (T/C endpoint: median tumor weight (est.), dose: 50.0 mg/kg/injection, schedule: Q07DX003 (ip), vehicle: clinical formulation, higher T/C = larger tumour) 6 of 10; (T/C endpoint: median tumor weight (est.), dose: 100.0 mg/kg/injection, schedule: Q07DX002 (ip), vehicle: water, higher T/C = larger tumour) 0 of 10 on day 20.
Regarding `Nc1nc(N)c2cc(S(=O)(=O)c3ccccc3)ccc2n1`, the survivor count (T/C endpoint: median survival time, dose: 57.0 mg/kg/injection, schedule: Q06HX012 (oral), vehicle: saline with Tween-80, higher T/C = longer survival) is reported as 3 of 10 on day 70; the survivor count (T/C endpoint: median survival time, dose: 86.0 mg/kg/injection, schedule: Q06HX012 (oral), vehicle: saline with Tween-80, higher T/C = longer survival) is on record as 0 of 10 on day 70; the survivor count (T/C endpoint: median survival time, dose: 130.0 mg/kg/injection, schedule: Q06HX012 (oral), vehicle: saline with Tween-80, higher T/C = longer survival) was 0 of 10 on day 70; the survivor count (T/C endpoint: median survival time, dose: 130.0 mg/kg/injection, schedule: Q06HX014 (ip), vehicle: saline with Tween-80, higher T/C = longer survival) was 2 of 10 on day 70; the survivor count (T/C endpoint: median survival time, dose: 195.0 mg/kg/injection, schedule: Q06HX012 (oral), vehicle: saline with Tween-80, higher T/C = longer survival) is reported as 0 of 10 on day 70; the survivor count (T/C endpoint: median survival time, dose: 195.0 mg/kg/injection, schedule: Q06HX014 (ip), vehicle: saline with Tween-80, higher T/C = longer survival) was 0 of 10 on day 70. Further, the survivor count (T/C endpoint: median survival time, dose: 292.0 mg/kg/injection, schedule: Q06HX012 (oral), vehicle: saline with Tween-80, higher T/C = longer survival) is 0 of 5 on day 70; the survivor count (T/C endpoint: median survival time, dose: 292.0 mg/kg/injection, schedule: Q06HX014 (ip), vehicle: saline with Tween-80, higher T/C = longer survival) is listed as 0 of 5 on day 70; the survivor count (T/C endpoint: median survival time, dose: 1170.0 mg/kg/injection, schedule: Q07DX002 (ip), vehicle: saline with Tween-80, higher T/C = longer survival) is 2 of 10 on day 70; the survivor count (T/C endpoint: median survival time, dose: 1750.0 mg/kg/injection, schedule: Q07DX002 (ip), vehicle: saline with Tween-80, higher T/C = longer survival) was 0 of 10 on day 70; the survivor count (T/C endpoint: median survival time, dose: 2600.0 mg/kg/injection, schedule: Q07DX002 (ip), vehicle: saline with Tween-80, higher T/C = longer survival) is given as 0 of 5 on day 70. The T/C (T/C endpoint: median survival time, dose: 780.0 mg/kg/injection, schedule: Q07DX002 (ip), vehicle: saline with Tween-80, higher T/C = longer survival) was 146 % of control [6 of 9 alive on day 70].
Regarding `NS(=O)(=O)c1cc2c(cc1Cl)NC=NS2(=O)=O`, the T/C (T/C endpoint: median tumor weight (est.), dose: 600.0 mg/kg/injection, schedule: Q07DX002 (ip), vehicle: Klucel (hydroxypropylcellulose) (HPC), evaluated on day 20, higher T/C = larger tumour) was 126 % of control.
Regarding `O=C1NC(O)c2ccccc2O1` (stereo not given), the survivor count under setting [3] is given as 2 of 10 on day 20.
As for `C/C(=N/NC(N)=S)c1ccc2ccccc2c1`, the survivor count under setting [1] is on record as 2 of 10 on day 20.
Consider `[I][Hg][CH2]C1OCCOC1[CH2][Hg][I]` (stereo not given), for which the survivor count by setting is: (T/C endpoint: median tumor weight (est.), dose: 50.0 mg/kg/injection, schedule: Q07DX002 (ip), vehicle: Klucel (hydroxypropylcellulose) (HPC), higher T/C = larger tumour) 4 of 10 on day 20; (T/C endpoint: median tumor weight (est.), dose: 100.0 mg/kg/injection, schedule: Q07DX002 (ip), vehicle: Klucel (hydroxypropylcellulose) (HPC), higher T/C = larger tumour) 0 of 10 on day 20; (T/C endpoint: median tumor weight (est.), dose: 200.0 mg/kg/injection, schedule: Q07DX002 (ip), vehicle: Klucel (hydroxypropylcellulose) (HPC), higher T/C = larger tumour) 0 of 10 on day 20; under setting [5], 0 of 10 on day 20.
Regarding `CC1(C)N=C(N)N=C(N)N1c1ccc(CCCCc2ccc(S(=O)(=O)F)cc2Cl)c(Cl)c1`, the T/C was 131 % of control (T/C endpoint: median survival time, dose: 57.0 mg/kg/injection, schedule: Q01DX013 (ip), vehicle: saline with Tween-80, higher T/C = longer survival); 126 and 131 % of control (T/C endpoint: median tumor weight (est.), dose: 6.25 mg/kg/injection, schedule: Q07DX002 (ip), vehicle: saline, evaluated on day 20, higher T/C = larger tumour); 133 and 133 % of control [9 of 10 alive] (T/C endpoint: median tumor weight (est.), dose: 50.0 mg/kg/injection, schedule: Q07DX002 (ip), vehicle: saline, evaluated on day 20, higher T/C = larger tumour).
For the compound `O=C1CN(CN2CCOCC2)C(=O)CN1CN1CCOCC1`, the T/C (T/C endpoint: median tumor weight (est.), dose: 12.5 mg/kg/injection, schedule: Q07DX002 (ip), vehicle: saline, evaluated on day 20, higher T/C = larger tumour) was 128 % of control and the T/C under setting [4] is 130 % of control.
Regarding `Cc1cc(Nc2ccc3c(c2)OCO3)c2cc3c(cc2n1)OCO3`, the survivor count is given as 0 of 10 on day 20 under setting [5] and 0 of 10 on day 20 (T/C endpoint: median tumor weight (est.), dose: 800.0 mg/kg/injection, schedule: Q07DX002 (ip), vehicle: Klucel (hydroxypropylcellulose) (HPC), higher T/C = larger tumour).
Take `C/C=C/C=C/c1cc2cc3c(c(O)c2c(=O)[nH]1)C1(CC3)C(O)=c2c(=O)c3c(=O)cc(OC)c(=O)c=3c(=O)c2=C1O` (stereo not given): where the note is “T/C endpoint: median tumor weight (est.), dose: 0.25 mg/kg/injection, schedule: Q07DX002 (ip), vehicle: DMSO, evaluated on day 20, higher T/C = larger tumour”, the T/C was 125 % of control. The survivor count runs as follows: (T/C endpoint: median tumor weight (est.), dose: 2.0 mg/kg/injection, schedule: Q07DX002 (ip), vehicle: DMSO, higher T/C = larger tumour) 0 of 10 on day 20; (T/C endpoint: median tumor weight (est.), dose: 2.25 mg/kg/injection, schedule: Q07DX002 (ip), vehicle: DMSO, higher T/C = larger tumour) 1 of 10 on day 20 and 2 of 10 on day 20; (T/C endpoint: median tumor weight (est.), dose: 4.5 mg/kg/injection, schedule: Q07DX002 (ip), vehicle: DMSO, higher T/C = larger tumour) 0 of 10 on day 20; (T/C endpoint: median tumor weight (est.), dose: 9.0 mg/kg/injection, schedule: Q07DX002 (ip), vehicle: DMSO, higher T/C = larger tumour) 0 of 10 on day 20; (T/C endpoint: median tumor weight (est.), dose: 18.0 mg/kg/injection, schedule: Q07DX002 (ip), vehicle: DMSO, higher T/C = larger tumour) 0 of 10 on day 20; (T/C endpoint: median tumor weight (est.), dose: 36.0 mg/kg/injection, schedule: Q07DX002 (ip), vehicle: DMSO, higher T/C = larger tumour) 0 of 10 on day 20.
